Laboratory results reported in PubChem BioAssay AID686970 (National Center for Advancing Translational Sciences (NCATS), 2013).
This is a selection; strong and weak results do not stand in their true shares. Results filed as inconclusive are left out. Activity calls are given as the source filed them. Calls follow the shape of the dose curve; as a rule, active = well fitted cell-killing curve with a large enough effect; inconclusive = small, poorly fitted or top-dose-only effect, or effect the other way; inactive = flat fitted curve, though single readings scatter.

Assay: qHTS for induction of synthetic lethality in tumor cells producing 2HG: qHTS for the HT-1080-NT fibrosarcoma cell line; also: nearly all actives have a fitted effect of over 55% in size
Settings: HT-1080-NT fibrosarcoma viability, CellTiter-Glo ATP luminescence, 48 h
Text: Unbiased genomic sequencing for 22 glioma genomes found recurrent mutation of IDH1 on chromosome 2q33, a gene encoding the cytosolic isoform of IDH1 associated with the tricarboxylic acid cycle (TCA) that catalyzes the oxidative decarboxylation of isocitrate, yielding alpha-ketoglutarate and CO2 via NADP+ to NADPH conversion. Subsequent studies confirmed the recurrent IDH mutations in up to 70% of secondary gliomas and in 10% of AML cases. In addition, the somatic mutation of cancer-associated IDH1 is a point mutation resulting in various amino-acid substituents at Arginine132 (IDH1 R132), a key residue found in the enzyme's active site that when mutated, results in the loss-of-function in metabolizing isocitrate but confers a gain-of-function to produce the oncometabolite 2-hydroxyglutarate (2HG). This in effect defines IDH1 as an oncogene and provides an extraordinary opportunity to discover chemical probes against mutant IDH1 that may translate into much needed new therapies for glioma and AML patients.
This assay aims to perform a synthetic lethal screen for chemical probes specific for 2HG-producing tumor cells using matched paired cell lines (1) HT-1080-NT fibrosarcoma cell line that overproduces 2HG and (2) HT-1080-IDH1KD cell line which has IDH1 expression knocked-down. Desirable compounds are toxic to the NT fibrosarcoma cells but not to the IDH1KD cell line. […]
Suspensions of trypsinized HT-1080-NT cells were dispensed into white, tissue culture-treated, solid 1536-well plates at 5uL/well (750 cells/well final concentration) in RPMI medium supplemented with 5% FBS. […] The plates were measured on a PerkinElmer ViewLux plate reader for luminescent signal (clear filter, 1 sec exp). […]
Concentration-response curves were fitted to the signals arising from the resulting luminescence. The concentration-effect curves were then classified based on curve quality (r2), response magnitude and degree of measured activity, and compounds were subsequently categorized based on their curve class.
Potency is read from the fitted curve at half-maximal effect.

Structure (SMILES)	Potency
CNC1CCc2cc(OC)c(OC)c(OC)c2-c2ccc(SC)c(=O)cc21 (stereo not drawn)	active: 206 nM
CCOC(=O)NC1CCc2cc(OC)c(OC)c(OC)c2-c2ccc(OC)c(=O)cc21 (stereo not drawn)	active: 184 nM
COc1cc2c(c(OC)c1OC)-c1ccc(OC)c(=O)cc1C(N)CC2 (stereo not drawn)	active: 184 nM
